The values below come from doi:10.1101/383646.

Protein sequences, listed by entry. Tags and fused reporters are not part of them. Residues count along the entry.
UniProt Q4U9M9, residues 504-839: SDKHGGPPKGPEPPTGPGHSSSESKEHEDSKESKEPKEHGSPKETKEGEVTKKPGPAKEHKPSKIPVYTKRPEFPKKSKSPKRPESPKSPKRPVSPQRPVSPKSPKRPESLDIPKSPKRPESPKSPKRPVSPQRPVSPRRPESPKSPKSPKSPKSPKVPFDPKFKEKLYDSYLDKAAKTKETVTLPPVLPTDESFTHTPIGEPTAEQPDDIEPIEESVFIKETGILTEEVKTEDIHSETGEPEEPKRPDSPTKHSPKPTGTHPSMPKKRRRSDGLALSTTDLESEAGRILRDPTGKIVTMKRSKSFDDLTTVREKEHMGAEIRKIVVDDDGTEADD

The experiment addresses GST-p104 C-terminal disordered region (504-839) fusion protein with a C-terminal hexa-histidine tag (Theileria annulata) (UniProt Q4U9M9). Briefly: pull-down.

Results are given in words; binding and its absence hold for the method and conditions named. Some results given as binding are weak or reduced against the parent protein; the word gives no strength.

“full-length human JNK2 with an N-terminal hexahistidine tag (from UniProt P45984 1-424)”: the binding entry is given as “binds”.
